Experimental data taken from PubChem BioAssay AID252 (DTP/NCI, 2004).
The list shows only some results of the screen, not a fair sample: it gathers tests that were run many times, whatever their T/C, doses with no T/C, and many T/C values between a quarter and a half above the control. Further doses and runs are listed elsewhere. T/C is the treated group as % of the vehicle group. Some entries give survivors of the animals treated and no T/C: the source holds a T/C of zero for them, seemingly a mark for toxic or unscored doses. Some doses without a T/C left all or most animals alive at the check, yet need not have been tolerated: the source hardly ever lists a survival T/C far under the control, and the zero likely stands for such cases as well. Survivors were counted at the toxicity check, usually on the fifth day, unless a day is given; later deaths do not show. Schedule codes are those of the source, taken here to give the interval after Q, in days (D) or hours (H), and the number of doses after X. Some schedules carry Z or #; the key to these is not given. Some entries were tested several times; the values are given in rising order. Where survival is the endpoint, the PubChem record calls one and a half times the control and up active, and a quarter to a half above the control has no call in these data; cut-offs in other NCI protocols can differ. Some T/C values are followed by the survivors on the day toxicity was checked, most often the fifth; where none is given, no animal had died by that day.

Test system: BDF1 mice, intracerebral L1210 leukemia, survival T/C
Assay: NCI In Vivo Anticancer Drug Screen. Data for tumor model L1210 Leukemia (intracerebral) in B6D2F1 (BDF1) mice
Details: higher T/C = longer survival
Summary of the method: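 Antitumour effect is judged in mice with transplanted tumour by comparing survival of treated (T) against vehicle-dosed (C) groups as T/C.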

[1] = T/C endpoint: mean survival time, dose: 500.0 mg/kg/injection, schedule: Q01DX Z (ip), vehicle: saline
[2] = T/C endpoint: mean survival time, dose: 250.0 mg/kg/injection, schedule: Q01DX001 (ip), vehicle: other

With `CC(=O)Nc1ccc2c(Nc3ccc(NS(C)(=O)=O)cc3)c3ccccc3nc2c1` the survivor count (T/C endpoint: mean survival time, dose: 12.5 mg/kg/injection, schedule: Q01DX009 (ip), vehicle: saline) was 10 of 10, the survivor count (T/C endpoint: mean survival time, dose: 25.0 mg/kg/injection, schedule: Q01DX009 (ip), vehicle: saline) was 9 of 10 and the survivor count (T/C endpoint: mean survival time, dose: 25.0 mg/kg/injection, schedule: Q01DX009 (sc), vehicle: saline) was 10 of 10.

For `Cc1nc(N)nc(N)c1-c1ccc(Cl)c(Cl)c1`, the T/C (T/C endpoint: median survival time, dose: 2.5 mg/kg/injection, schedule: Q01DX009 (ip), vehicle: saline) was 138 % of control and the survivor count (T/C endpoint: median survival time, dose: 20.0 mg/kg/injection, schedule: Q01DX009 (ip), vehicle: saline) was 10 of 10.

With `CN(Cc1cnc2nc(N)nc(N)c2n1)c1ccc(C(=O)N[C@@H](CCC(=O)O)C(=O)O)cc1` the T/C (T/C endpoint: mean survival time, dose: 1.08 mg/kg/injection, schedule: Q01DX009 (ip), vehicle: sodium bicarbonate) was 131 % of control [9 of 10 alive], the T/C (T/C endpoint: mean survival time, dose: 1.8 mg/kg/injection, schedule: Q01DX009 (ip), vehicle: sodium bicarbonate) was 127 % of control [9 of 10 alive] and the T/C (T/C endpoint: mean survival time, dose: 2.5 mg/kg/injection, schedule: Q01DX009 (ip), vehicle: other) was 146 % of control. The T/C (T/C endpoint: mean survival time, dose: 5.0 mg/kg/injection, schedule: Q01DX009 (ip), vehicle: other) was 140 % of control, the survivor count (T/C endpoint: mean survival time, dose: 8.4 mg/kg/injection, schedule: Q01DX009 (ip), vehicle: sodium bicarbonate) was 6 of 10 and the T/C (T/C endpoint: median survival time, dose: 2.0 mg/kg/injection, schedule: Q01DX009 (ip), vehicle: sodium bicarbonate) was 125 % of control. For the same compound, the survivor count (T/C endpoint: median survival time, dose: 4.0 mg/kg/injection, schedule: Q01DX009 (ip), vehicle: sodium bicarbonate) was 7 of 8.

For `O=c1cnn(C2OC(CO)C(O)C2O)c(=O)[nH]1` (stereo not drawn), the T/C (T/C endpoint: mean survival time, dose: 125.0 mg/kg/injection, schedule: Q01DX Z (ip), vehicle: saline) was 143 % of control, the T/C (T/C endpoint: mean survival time, dose: 250.0 mg/kg/injection, schedule: Q01DX Z (ip), vehicle: saline) was 146 % of control and the T/C [1] was 148 % of control. For the same compound, the T/C (T/C endpoint: mean survival time, dose: 1000.0 mg/kg/injection, schedule: Q01DX Z (ip), vehicle: saline) was 139 % of control.

With `O=NN(CCBr)C(=O)NCCBr` the T/C (T/C endpoint: mean survival time, dose: 200.0 mg/kg/injection, schedule: Q01DX001 (ip), vehicle: carboxymethylcellulose (CMC)) was 139 % of control [8 of 10 alive], the survivor count (T/C endpoint: mean survival time, dose: 300.0 mg/kg/injection, schedule: Q01DX001 (ip), vehicle: carboxymethylcellulose (CMC)) was 0 of 10 and the survivor count (T/C endpoint: mean survival time, dose: 450.0 mg/kg/injection, schedule: Q01DX001 (ip), vehicle: carboxymethylcellulose (CMC)) was 0 of 10.

In the case of `O=NN(CCCl)C(=O)NC1CCCC1`, the T/C (T/C endpoint: mean survival time, dose: 8.0 mg/kg/injection, schedule: Q01DX001 (ip), vehicle: saline) was 129 % of control, the T/C (T/C endpoint: mean survival time, dose: 9.0 mg/kg/injection, schedule: Q01DX001 (ip), vehicle: saline) was 128 and 137 % of control and the T/C (T/C endpoint: mean survival time, dose: 12.0 mg/kg/injection, schedule: Q01DX001 (ip), vehicle: saline) was 144 % of control. The T/C (T/C endpoint: mean survival time, dose: 12.5 mg/kg/injection, schedule: Q01DX001 (ip), vehicle: saline) was 125 % of control, the T/C (T/C endpoint: mean survival time, dose: 96.0 mg/kg/injection, schedule: Q01DX001 (ip), vehicle: saline) was 146 % of control and the survivor count (T/C endpoint: mean survival time, dose: 145.0 mg/kg/injection, schedule: Q01DX001 (ip), vehicle: saline) was 6 of 6. The survivor count (T/C endpoint: mean survival time, dose: 337.0 mg/kg/injection, schedule: Q01DX001 (ip), vehicle: saline) was 9 of 10, the survivor count (T/C endpoint: mean survival time, dose: 500.0 mg/kg/injection, schedule: Q01DX001 (ip), vehicle: saline) was 10 of 10 and the survivor count (T/C endpoint: mean survival time, dose: 750.0 mg/kg/injection, schedule: Q01DX001 (ip), vehicle: saline) was 5 of 10.

In the case of `CN(N=O)C(=O)Nc1ccc(NC(=O)N(C)N=O)cc1`, the survivor count (T/C endpoint: mean survival time, dose: 360.0 mg/kg/injection, schedule: Q01DX001 (ip), vehicle: carboxymethylcellulose (CMC)) was 5 of 10 and the survivor count (T/C endpoint: mean survival time, dose: 720.0 mg/kg/injection, schedule: Q01DX001 (ip), vehicle: carboxymethylcellulose (CMC)) was 0 of 10.

In the case of `CCCCCCCCCCCCCCCC(=O)OCC1OC(n2ccc(N)nc2=O)C(O)C1O` (stereo not drawn), the T/C (T/C endpoint: mean survival time, dose: 10.0 mg/kg/injection, schedule: Q01DX005 (ip), vehicle: other) was 125, 128, 131 % of control [9 of 10 alive], the T/C (T/C endpoint: mean survival time, dose: 15.0 mg/kg/injection, schedule: Q01DX005 (ip), vehicle: other) was 134, 144, 145 % of control and the T/C (T/C endpoint: mean survival time, dose: 50.0 mg/kg/injection, schedule: Q01DX001 (ip), vehicle: other) was 136 % of control. For the same compound, the T/C (T/C endpoint: mean survival time, dose: 100.0 mg/kg/injection, schedule: Q01DX001 (ip), vehicle: other) was 142 and 143 % of control, the survivor count (T/C endpoint: median survival time, dose: 100.0 mg/kg/injection, schedule: Q01DX009 (ip), vehicle: saline with Tween-80) was 9 of 10 and the survivor count (T/C endpoint: median survival time, dose: 200.0 mg/kg/injection, schedule: Q01DX009 (ip), vehicle: saline with Tween-80) was 8 of 10. The survivor count (T/C endpoint: median survival time, dose: 400.0 mg/kg/injection, schedule: Q01DX009 (ip), vehicle: saline with Tween-80) was 4 of 10.

`CCC(=O)NC1=C(N2CC2C)C(=O)C(NC(=O)CC)=C(N2CC2C)C1=O` (stereo not drawn) was tested, and the survivor count (T/C endpoint: mean survival time, dose: 50.0 mg/kg/injection, schedule: Q01DX009 (ip), vehicle: Klucel (hydroxypropylcellulose) (HPC)) was 1 of 6.

In the case of `C[C@@H]1CN1C1=CC(=O)C(N2C[C@H]2C)=CC1=O`, the survivor count (T/C endpoint: mean survival time, dose: 16.0 mg/kg/injection, schedule: Q01DX009 (ip), vehicle: Klucel (hydroxypropylcellulose) (HPC)) was 5 of 6, the survivor count (T/C endpoint: mean survival time, dose: 32.0 mg/kg/injection, schedule: Q01DX009 (ip), vehicle: Klucel (hydroxypropylcellulose) (HPC)) was 2 of 6 and the survivor count (T/C endpoint: mean survival time, dose: 64.0 mg/kg/injection, schedule: Q01DX009 (ip), vehicle: Klucel (hydroxypropylcellulose) (HPC)) was 0 of 6.

For `CC1CCCC(NC(=O)N(CCCl)N=O)C1` (stereo not drawn), the T/C (T/C endpoint: mean survival time, dose: 27.0 mg/kg/injection, schedule: Q01DX001 (ip), vehicle: other) was 128 % of control, the T/C (T/C endpoint: mean survival time, dose: 35.0 mg/kg/injection, schedule: Q01DX001 (ip), vehicle: other) was 127 % of control and the T/C (T/C endpoint: mean survival time, dose: 143.0 mg/kg/injection, schedule: Q01DX001 (ip), vehicle: other) was 135 % of control.

With `Cc1ccc(S(=O)(=O)NC(=O)N(CCCl)N=O)cc1` the T/C (T/C endpoint: mean survival time, dose: 93.0 mg/kg/injection, schedule: Q01DX001 (ip), vehicle: other) was 126 % of control [9 of 10 alive].

For `O=NN(CCF)C(=O)NC1CCC(NC(=O)N(CCF)N=O)CC1` (stereo not drawn), the T/C (T/C endpoint: mean survival time, dose: 20.0 mg/kg/injection, schedule: Q01DX001 (ip), vehicle: other) was 137 % of control, the T/C [2] was 126 % of control [9 of 10 alive] and the survivor count (T/C endpoint: mean survival time, dose: 375.0 mg/kg/injection, schedule: Q01DX001 (ip), vehicle: other) was 3 of 10.

For `O=C(Nc1ccc(C2=NCCN2)cc1)c1ccc(C(=O)Nc2ccc(C3=NCCN3)cc2)c(Cl)c1`, the survivor count (T/C endpoint: mean survival time, dose: 75.0 mg/kg/injection, schedule: Q01DX Z (ip), vehicle: carboxymethylcellulose (CMC)) was 3 of 6, the survivor count (T/C endpoint: mean survival time, dose: 100.0 mg/kg/injection, schedule: Q01DX Z (ip), vehicle: carboxymethylcellulose (CMC)) was 0 of 6 and the survivor count (T/C endpoint: mean survival time, dose: 110.0 mg/kg/injection, schedule: Q01DX001 (ip), vehicle: carboxymethylcellulose (CMC)) was 0 of 10 and 4 of 10.

For `CC[n+]1c(-c2ccccc2)c2cc(N)ccc2c2ccc(N)cc21`, the T/C (T/C endpoint: mean survival time, dose: 3.75 mg/kg/injection, schedule: Q01DX Z (ip), vehicle: saline) was 134 % of control and the survivor count (T/C endpoint: mean survival time, dose: 30.0 mg/kg/injection, schedule: Q01DX Z (ip), vehicle: saline) was 5 of 6.

`CS(=O)(=O)Nc1ccc(Nc2c3ccccc3nc3ccccc23)cc1` was tested, and the survivor count (T/C endpoint: mean survival time, dose: 80.0 mg/kg/injection, schedule: Q01DX009 (ip), vehicle: saline) was 10 of 10.

With `Cc1c(C)c(NC(=O)N(CCCl)N=O)c(C)c(C)c1NC(=O)N(CCCl)N=O` the T/C [2] was 141 % of control and the survivor count (T/C endpoint: mean survival time, dose: 1000.0 mg/kg/injection, schedule: Q01DX001 (ip), vehicle: other) was 6 of 10.

With `O=NN(CCF)C(=O)NC1CS(=O)(=O)CS(=O)(=O)C1` the T/C (T/C endpoint: mean survival time, dose: 37.0 mg/kg/injection, schedule: Q01DX001 (ip), vehicle: other) was 130 % of control and the T/C (T/C endpoint: mean survival time, dose: 56.0 mg/kg/injection, schedule: Q01DX001 (ip), vehicle: other) was 127 % of control [9 of 10 alive].

`CNNCc1ccc(C(=O)NC(N)=O)cc1` was tested, and the T/C (T/C endpoint: mean survival time, dose: 100.0 mg/kg/injection, schedule: Q01DX Z (ip), vehicle: saline) was 125 % of control, the T/C (T/C endpoint: mean survival time, dose: 148.0 mg/kg/injection, schedule: Q01DX Z (ip), vehicle: saline) was 131 % of control and the T/C (T/C endpoint: mean survival time, dose: 222.0 mg/kg/injection, schedule: Q01DX Z (ip), vehicle: saline) was 138 % of control. For the same compound, the T/C (T/C endpoint: mean survival time, dose: 333.0 mg/kg/injection, schedule: Q01DX Z (ip), vehicle: saline) was 140 % of control and the T/C [1] was 135 % of control [8 of 9 alive].
